Patent publication US20240209062A1 (INVETX, published 2024)
Substitutions are numbered along the chain they refer to. Names and notes keep the numbering of the source. No constants are given. Whether binding was seen depends on the method and setting. Some binding calls cover weakened binding; strength is not graded here. Sequences can lack the tags named with a protein. Blank lines part the entries; values can stand above or below the binder they belong to.

Amino acid sequences for entries named in this document (tags omitted). A change or cut given only in a name is not applied to a line headed by its entry.
UniProt Q5MGS7: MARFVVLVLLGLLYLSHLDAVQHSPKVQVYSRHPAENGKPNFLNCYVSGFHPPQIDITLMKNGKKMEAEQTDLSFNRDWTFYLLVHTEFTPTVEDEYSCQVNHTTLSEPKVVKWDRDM

Target: feline FcRn (soluble portion of large subunit p51 isoform X1 with C-terminal 6xHis-tag, co-expressed with feline beta2-microglobulin with C-terminal STREP-TAG II) (feline) (UniProt Q5MGS7)
Experiment: SPR, pH 5.9

binding: binds
B1: IgG with feline IgG1a Fc variant S252M (antibody)
heavy: DVQLVESGGDLVKPGGSLRLTCVASGLSLTSDSMSWVRQAPGKGLQWVSTLWSNRGTYYTDSVKGRFTISKDNAENTLYLQMNNLKTEDTATYYCASIYYYEADYLHWYFDFWGQGALVTVSSASTTAPSVFPLAPSCGTTSGATVALACLVLGYFPEPVTVSWNSGALTSGVHTFPAVLQASGLYSLSSMVTVPSSRWLSDTFTCNVAHPPSNTKVDKTVRKTDHPPGPKPCDCPKCPPPEAAGGPSIFIFPPKPKDTLMISRTPEVTCLVVDLGPDDSDVQITWFVDNTQVYTAKTSPREEQFNSTYRVVSVLPILHQDWLKGKEFKCKVNSKSLPSPIERTISKAKGQPHEPQVYVLPPAQEELSRNKVSVTCLIKSFHPPDIAVEWEITGQPEPENNYRTTPPQLDSDGTYFVYSKLSVDRSHWQRGNTYTCSVSHEALHSHHTQKSLTQSPG
light: EIQMTQSPTSLSASVGDRVTITCRASEGIANNLSWYQQTPGKAPKLLIYATSNLHSGVPSRFSGSGSGTDFTLTISSLQPEDFATYYCQQGFKWPLTFGGGTKLEITRSDAQPSVFLFQPSLDELHTGSASIVCILNDFYPKEVNVKWKVDGVVQNKGIQESTTEQNSKDSTYSLSSTLTMSSTEYQSHEKFSCEVTHKSLASTLVKSFNRSECQRE
notes: IgG1a constant domain with MALA mutations (M234A, L244A as printed); variable domains from WO 2023/97275

binding: binds
B2: IgG with feline IgG1a Fc variant S428M, L309E (antibody)
heavy: B1 heavy with M261S, L318E, S439M
light: B1 light
notes: as for B1

binding: binds
B3: IgG with feline IgG1a Fc variant S428L, R301V (antibody)
heavy: B1 heavy with M261S, R310V, S439L
light: B1 light
notes: as for B1

binding: binds
B4: IgG with feline IgG1a Fc variant S428M, L309D (antibody)
heavy: B1 heavy with M261S, L318D, S439M
light: B1 light
notes: as for B1

binding: binds
B5: IgG with feline IgG1a Fc variant S252M, T286E (antibody)
heavy: B1 heavy with T295E
light: B1 light
notes: as for B1

binding: binds
B6: IgG with feline IgG1a Fc variant S252Y, R392D (antibody)
heavy: B1 heavy with M261Y, R403D
light: B1 light
notes: as for B1

binding: binds
B7: IgG with feline IgG1a Fc variant S428L, T286D (antibody)
heavy: B1 heavy with M261S, T295D, S439L
light: B1 light
notes: as for B1

binding: binds
B8: IgG with feline IgG1a Fc variant S252Y, T286D (antibody)
heavy: B1 heavy with M261Y, T295D
light: B1 light
notes: as for B1

binding: binds
B9: IgG with feline IgG1a Fc variant S252M, R301Y (antibody)
heavy: B1 heavy with R310Y
light: B1 light
notes: as for B1

binding: binds
B10: IgG with feline IgG1a Fc variant S252Y, R301V (antibody)
heavy: B1 heavy with M261Y, R310V
light: B1 light
notes: as for B1

binding: binds
B11: IgG with feline IgG1a Fc variant S252Y, L309D (antibody)
heavy: B1 heavy with M261Y, L318D
light: B1 light
notes: as for B1

binding: binds
B12: IgG with feline IgG1a Fc variant S252Y, R392E (antibody)
heavy: B1 heavy with M261Y, R403E
light: B1 light
notes: as for B1

binding: binds
B13: IgG with feline IgG1a Fc variant S428M, I377Y (antibody)
heavy: B1 heavy with M261S, I386Y, S439M
light: B1 light
notes: Printed '1377Y' read as I377Y; IgG1a constant domain with MALA mutations (M234A, L244A as printed); variable domains from WO 2023/97275; also called S428M, 1377Y

binding: binds
B14: IgG with feline IgG1a Fc variant S428L, R301L (antibody)
heavy: B1 heavy with M261S, R310L, S439L
light: B1 light
notes: as for B1

binding: binds
B15: IgG with feline IgG1a Fc variant S252M, L309D (antibody)
heavy: B1 heavy with L318D
light: B1 light
notes: as for B1

binding: binds
B16: IgG with feline IgG1a Fc variant S252M, R301L (antibody)
heavy: B1 heavy with R310L
light: B1 light
notes: as for B1

binding: binds
B17: IgG with feline IgG1a Fc variant S428M, Q311V (antibody)
heavy: B1 heavy with M261S, Q320V, S439M
light: B1 light
notes: as for B1

binding: binds
B18: IgG with feline IgG1a Fc variant S252M, R392E (antibody)
heavy: B1 heavy with R403E
light: B1 light
notes: as for B1

binding: binds
B19: IgG with feline IgG1a Fc variant S252M, L309V (antibody)
heavy: B1 heavy with L318V
light: B1 light
notes: as for B1

binding: binds
B20: IgG with feline IgG1a Fc variant S252Y, L309V (antibody)
heavy: B1 heavy with M261Y, L318V
light: B1 light
notes: as for B1

binding: binds
B21: IgG with feline IgG1a Fc variant S252M, Q311V (antibody)
heavy: B1 heavy with Q320V
light: B1 light
notes: as for B1

binding: binds
B22: IgG with feline IgG1a Fc variant S252M, I377L (antibody)
heavy: B1 heavy with I386L
light: B1 light
notes: Printed '1377L' read as I377L; IgG1a constant domain with MALA mutations (M234A, L244A as printed); variable domains from WO 2023/97275; also called S252M, 1377L

binding: binds
B23: IgG with feline IgG1a Fc variant S252Y, T286E (antibody)
heavy: B1 heavy with M261Y, T295E
light: B1 light
notes: as for B1

binding: binds
B24: IgG with feline IgG1a Fc variant S252Y, I377Y (antibody)
heavy: B1 heavy with M261Y, I386Y
light: B1 light
notes: Printed '1377Y' read as I377Y; IgG1a constant domain with MALA mutations (M234A, L244A as printed); variable domains from WO 2023/97275; also called S252Y, 1377Y

binding: binds
B25: IgG with feline IgG1a Fc variant S428M (antibody)
heavy: B1 heavy with M261S, S439M
light: B1 light
notes: as for B1

binding: binds
B26: IgG with feline IgG1a Fc variant S252M, T286D (antibody)
heavy: B1 heavy with T295D
light: B1 light
notes: as for B1

binding: binds
B27: IgG with feline IgG1a Fc variant S428L, I377L (antibody)
heavy: B1 heavy with M261S, I386L, S439L
light: B1 light
notes: Printed '1377L' read as I377L; IgG1a constant domain with MALA mutations (M234A, L244A as printed); variable domains from WO 2023/97275; also called S428L, 1377L

binding: binds
B28: IgG with feline IgG1a Fc variant S428L (antibody)
heavy: B1 heavy with M261S, S439L
light: B1 light
notes: as for B1

binding: binds
B29: IgG with feline IgG1a Fc variant S252Y, I377L (antibody)
heavy: B1 heavy with M261Y, I386L
light: B1 light
notes: Printed '1377L' read as I377L; IgG1a constant domain with MALA mutations (M234A, L244A as printed); variable domains from WO 2023/97275; also called S252Y, 1377L

binding: binds
B30: IgG with feline IgG1a Fc variant S252Y (antibody)
heavy: B1 heavy with M261Y
light: B1 light
notes: as for B1

binding: binds
B31: IgG with feline IgG1a Fc variant S428M, R301L (antibody)
heavy: B1 heavy with M261S, R310L, S439M
light: B1 light
notes: as for B1

binding: binds
B32: IgG with feline IgG1a Fc variant S252M, R392D (antibody)
heavy: B1 heavy with R403D
light: B1 light
notes: as for B1

binding: binds
B33: IgG with feline IgG1a Fc variant S252M, I377Y (antibody)
heavy: B1 heavy with I386Y
light: B1 light
notes: Printed '1377Y' read as I377Y; IgG1a constant domain with MALA mutations (M234A, L244A as printed); variable domains from WO 2023/97275; also called S252M, 1377Y

binding: binds
B34: IgG with feline IgG1a Fc variant S428L, R392E (antibody)
heavy: B1 heavy with M261S, R403E, S439L
light: B1 light
notes: as for B1

binding: binds
B35: IgG with feline IgG1a Fc variant S428L, L309D (antibody)
heavy: B1 heavy with M261S, L318D, S439L
light: B1 light
notes: as for B1

binding: binds
B36: IgG with feline IgG1a Fc variant S252Y, R301L (antibody)
heavy: B1 heavy with M261Y, R310L
light: B1 light
notes: as for B1

binding: binds
B37: IgG with feline IgG1a Fc variant S428L, I377Y (antibody)
heavy: B1 heavy with M261S, I386Y, S439L
light: B1 light
notes: Printed '1377Y' read as I377Y; IgG1a constant domain with MALA mutations (M234A, L244A as printed); variable domains from WO 2023/97275; also called S428L, 1377Y

binding: binds
B38: IgG with feline IgG1a Fc variant S428L, R301Y (antibody)
heavy: B1 heavy with M261S, R310Y, S439L
light: B1 light
notes: as for B1

binding: binds
B39: IgG with feline IgG1a Fc variant S252Y, R301Y (antibody)
heavy: B1 heavy with M261Y, R310Y
light: B1 light
notes: as for B1

binding: binds
B40: IgG with feline IgG1a Fc variant S428M, L309V (antibody)
heavy: B1 heavy with M261S, L318V, S439M
light: B1 light
notes: as for B1

binding: binds
B41: IgG with feline IgG1a Fc variant S252M, R301V (antibody)
heavy: B1 heavy with R310V
light: B1 light
notes: as for B1

binding: binds
B42: IgG with feline IgG1a Fc variant S428M, I377L (antibody)
heavy: B1 heavy with M261S, I386L, S439M
light: B1 light
notes: Printed '1377L' read as I377L; IgG1a constant domain with MALA mutations (M234A, L244A as printed); variable domains from WO 2023/97275; also called S428M, 1377L

binding: binds
B43: IgG with feline IgG1a Fc variant S428L, R392D (antibody)
heavy: B1 heavy with M261S, R403D, S439L
light: B1 light
notes: as for B1

binding: binds
B44: IgG with feline IgG1a Fc variant S428M, R301V (antibody)
heavy: B1 heavy with M261S, R310V, S439M
light: B1 light
notes: as for B1
